Data published in paper PMC6921592.
Results are given in words; binding and its absence hold for the method and conditions named. Binding seen in cells or lysates may run through a third protein. Some results given as binding are weak or reduced against the parent protein; the word gives no strength.

By UniProt entry, the sequences of proteins in these tests, tags left out.
UniProt Q80U70: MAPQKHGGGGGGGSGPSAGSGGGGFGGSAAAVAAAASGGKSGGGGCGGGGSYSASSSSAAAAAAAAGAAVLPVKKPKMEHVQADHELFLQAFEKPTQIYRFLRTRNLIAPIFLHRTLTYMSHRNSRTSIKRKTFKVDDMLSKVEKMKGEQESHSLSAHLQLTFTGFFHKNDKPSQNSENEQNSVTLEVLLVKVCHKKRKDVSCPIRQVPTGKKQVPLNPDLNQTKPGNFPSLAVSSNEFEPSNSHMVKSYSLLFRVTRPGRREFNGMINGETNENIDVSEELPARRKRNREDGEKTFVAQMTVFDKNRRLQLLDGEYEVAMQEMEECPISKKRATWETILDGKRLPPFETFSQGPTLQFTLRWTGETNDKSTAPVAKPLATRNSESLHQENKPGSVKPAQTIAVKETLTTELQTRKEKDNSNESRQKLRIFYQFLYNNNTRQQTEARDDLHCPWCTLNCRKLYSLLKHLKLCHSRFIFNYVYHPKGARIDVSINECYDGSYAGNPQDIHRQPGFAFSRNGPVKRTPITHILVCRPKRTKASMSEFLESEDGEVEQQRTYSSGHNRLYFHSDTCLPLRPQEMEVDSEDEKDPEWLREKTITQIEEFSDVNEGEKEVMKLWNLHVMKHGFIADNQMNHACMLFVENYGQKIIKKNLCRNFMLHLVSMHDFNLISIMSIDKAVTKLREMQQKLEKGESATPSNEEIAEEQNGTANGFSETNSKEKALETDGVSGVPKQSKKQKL
UniProt P70351: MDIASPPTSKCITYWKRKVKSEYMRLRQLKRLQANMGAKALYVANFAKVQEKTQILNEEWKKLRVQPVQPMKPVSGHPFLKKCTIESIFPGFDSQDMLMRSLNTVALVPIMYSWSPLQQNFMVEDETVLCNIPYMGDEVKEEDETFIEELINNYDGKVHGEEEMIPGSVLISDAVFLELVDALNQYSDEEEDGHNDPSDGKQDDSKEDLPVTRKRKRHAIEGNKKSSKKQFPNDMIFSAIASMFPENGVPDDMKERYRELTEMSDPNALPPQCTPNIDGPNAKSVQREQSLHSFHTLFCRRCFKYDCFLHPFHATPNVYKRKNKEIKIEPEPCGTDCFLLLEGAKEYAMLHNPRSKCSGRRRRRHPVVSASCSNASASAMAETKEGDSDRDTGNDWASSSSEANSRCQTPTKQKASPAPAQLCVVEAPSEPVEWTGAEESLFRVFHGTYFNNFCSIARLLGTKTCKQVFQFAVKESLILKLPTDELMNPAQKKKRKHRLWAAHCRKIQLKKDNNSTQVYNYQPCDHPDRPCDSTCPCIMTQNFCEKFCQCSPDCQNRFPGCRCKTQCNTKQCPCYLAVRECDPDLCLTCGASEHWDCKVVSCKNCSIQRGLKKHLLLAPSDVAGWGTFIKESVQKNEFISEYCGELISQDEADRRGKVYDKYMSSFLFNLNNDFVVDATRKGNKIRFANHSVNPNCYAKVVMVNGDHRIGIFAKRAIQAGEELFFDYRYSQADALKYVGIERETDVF
UniProt Q921E6: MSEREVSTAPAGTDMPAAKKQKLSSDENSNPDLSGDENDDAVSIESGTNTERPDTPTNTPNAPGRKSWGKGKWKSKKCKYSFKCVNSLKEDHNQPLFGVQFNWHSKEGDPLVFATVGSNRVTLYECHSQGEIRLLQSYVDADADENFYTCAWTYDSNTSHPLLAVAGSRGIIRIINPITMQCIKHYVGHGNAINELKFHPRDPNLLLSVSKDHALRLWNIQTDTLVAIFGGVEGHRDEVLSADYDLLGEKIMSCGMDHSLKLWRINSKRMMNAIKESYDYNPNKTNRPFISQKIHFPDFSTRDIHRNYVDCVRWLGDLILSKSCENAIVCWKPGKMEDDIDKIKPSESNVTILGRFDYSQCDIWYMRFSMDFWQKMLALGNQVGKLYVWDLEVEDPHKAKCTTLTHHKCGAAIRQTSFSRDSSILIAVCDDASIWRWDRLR

Experiments:
[1] = target: SUZ12 (mouse (endogenous in C2C12)) (UniProt Q80U70); assay: co-IP; nuclear extracts of scramble and NEDD4 knock-down C2C12 lines, normal and oxidative stress conditions, immunoprecipitated with SUZ12 antibody; Protein A Dynabeads alone as mock; immunoblot with anti-EED
[2] = target: Ezh1α-FLAG-HA (UniProt P70351); assay: co-IP; Ezh1α-FH immunoprecipitated from nuclear extracts of two C2C12 stable lines, myotubes; wild-type C2C12 as mock; normal and H2O2 conditions, scramble and HUWE1 knock-down compared in Fig. 6f; immunoblot

binding [1] | binding [2] | Substance
binds | – | EED (from UniProt Q921E6 1-441)
– | binds | SUZ12 (from UniProt Q80U70 1-741)
